Earlier results as cited in US11452718B2 (AVALYN PHARMA INC., priority 2012, dated 2022).
For at least one compound, name, drawing or mass did not settle the structure.

What was measured:
[1] = cited from earlier work
[2] = cited from earlier work; remark: listed apart in the source
[3] = system: metastatic melanoma; settings: cited from earlier work; for response rate to treatment: metastatic melanoma
[4] = system: tumors; settings: after 56 days; cited from earlier work

O=C(O)c1ccc(=O)n(-c2ccccc2)c1 [5-carboxy-pirfenidone]
anti-fibrotic or anti-inflammatory activity [1]: does not appear to have anti-fibrotic or anti-inflammatory activity

CC(=O)N[C@@H](CS)C(=O)O [ACC]
pH [2]: 2.2

CCCS(=O)(=O)Nc1ccc(F)c(C(=O)c2c[nH]c3ncc(-c4ccc(Cl)cc4)cc23)c1F [Vemurafenib]
tumors developing resistance to the treatment ([3]; human, in vivo): 20% | response rate to treatment [3]: 53% | tumors becoming resistant [4]: 20%

CN(C)/N=N/c1[nH]cnc1C(N)=O [dacarbazine]
response rate to treatment [3]: 7-12%
